In patent publication US9035054B2, “Dinitroxide-type biradical compounds optimized for dynamic nuclear polarization (DNP)” (Universite D'Aix-Marseille, priority 2009, dated 2015):
Read-outs that look alike come from different tables or passages of the source.

What was measured:
[1] = cited from earlier work; for polarization enhancement factor ε: 90 K, field of 5 T, irradiation strength 1.5 W, 13C urea
[2] = DNP with polarizing agent, polarization of 13C urea (5 T, 93 K, MAS); details: for growth factor ε+ at stationary state (positive polarization): irradiation strength on the order of 2.5 W, 1H polarization detected via 13C urea; for ε+ when the irradiation strength tends towards infinity: extrapolated to infinite irradiation strength (FIG. 7)

Molecule	polarization enhancement factor ε ([1]; polarizing agent 5 mM)	growth factor ε+ at stationary state (positive polarization) ([2]; 93 K, 5 T)	ε+ when the irradiation strength tends towards infinity [2]	polarization enhancement factor ε ([1]; polarizing agent 40 mM)	augmentation factors of polarization, ε ([1]; TEMPO concentration on the order of 40 mM, 13C urea nucleus)	polarization growth time constant ([2]; 93 K, 5 T, 9 mM bTbK, 2 M 13C-urea in d6-DMSO/D2O/H2O (77/17/6)) [s]
1-(TEMPO-4-oxy)-3-(TEMPO-4-amino) propan-2-ol [TOTAPOL]	190±20	180	230			
CC1(C)CCCC(C)(C)N1[O] [TEMPO]				40±5	~40	
bis-TEMPO-bis-Ketal [bTbK]		250	325			7
